# “And” between values parts separate entries of the source, which are not always exact repeats. Equal entries are not always repeated. Among all 580,000 compounds or so, about 6,100 (1.1%) were called active. The inconclusive results got no clear call from the source; some entries with a clear call stand among them for comparison. Calls come from the whole dose curve; as a rule, active = well fitted inhibition curve with a large enough effect; inconclusive = small, poorly fitted or top-dose-only effect, or another doubt; inactive = no such curve, though single readings can be large or run the other way. Potencies of inconclusive entries are doubtful fits and often do not repeat. Square brackets hold non-standard residues; d marks the D form. Peptide text beside a SMILES is read from it. * marks the point of attachment. ξ: configuration not given here. ξNMe2Val = CC(C)C(C(=O)*)N(C)C; NMeV = CN[CH](C(=O)O)C(C)C; NHBn = c1ccc(CN*)cc1
# Sequences of proteins named here, by UniProt entry; tags and fusion partners are left off.
# UniProt P18054, whole entry, looked up: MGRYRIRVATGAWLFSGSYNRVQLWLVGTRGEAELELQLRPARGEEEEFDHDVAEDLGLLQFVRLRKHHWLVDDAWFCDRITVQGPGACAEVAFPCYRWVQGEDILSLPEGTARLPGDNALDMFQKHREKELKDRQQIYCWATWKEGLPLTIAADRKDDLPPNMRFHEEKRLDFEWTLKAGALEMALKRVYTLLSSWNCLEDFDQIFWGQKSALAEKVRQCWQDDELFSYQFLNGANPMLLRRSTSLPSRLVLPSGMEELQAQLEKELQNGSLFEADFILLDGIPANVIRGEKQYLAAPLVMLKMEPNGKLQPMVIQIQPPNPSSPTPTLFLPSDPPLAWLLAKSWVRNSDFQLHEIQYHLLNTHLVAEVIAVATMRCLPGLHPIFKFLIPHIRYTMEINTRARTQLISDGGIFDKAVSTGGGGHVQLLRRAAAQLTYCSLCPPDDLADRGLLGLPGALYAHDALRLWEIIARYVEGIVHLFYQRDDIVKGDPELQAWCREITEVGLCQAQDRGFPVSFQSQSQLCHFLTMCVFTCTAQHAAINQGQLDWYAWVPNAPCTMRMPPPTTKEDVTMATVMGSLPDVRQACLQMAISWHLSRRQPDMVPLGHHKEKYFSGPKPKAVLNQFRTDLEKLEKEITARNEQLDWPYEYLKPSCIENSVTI
# Biological target: Polyunsaturated fatty acid lipoxygenase ALOX12 (Homo sapiens) (UniProt P18054)
# Assay: Primary qHTS assay for inhibitors of human arachidonate 12S-lipoxygenase (ALOX12): Round 2
# Details: purified 12hLO, xylenol orange hydroperoxide absorbance; activity change, negative = inhibition: at 108 µM (top of the series)
# Outline: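 Purified human 12hLO (150 nM final) in 25 mM Hepes, 0.01% Triton X-100, pH 7.0 was preincubated 15 min at room temperature with compound. Then 40 uM arachidonic acid was added, 30 min. Hydroperoxide was read by Fe-XO absorbance ratio 573/405 nm.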
# % is set by controls: 0 for no effect and ±100 for the full control effect; potency is the fitted concentration of half-maximal effect.
SMILES,Potency,"activity change, negative = inhibition"
C[C@]1(O)CCC2C3CC[C@H]4C[C@@H](OC(=O)[C@@H](N)CCCCN)CC[C@]4(C)C3CC[C@@]21C (stereo partly drawn),"inconclusive: 56.2 µM [inhibitor, partial curve, poor fit]",–
Cc1cccc(N2CCc3c2nc2ccccc2c3N)c1,"inconclusive: 0.398 µM [inhibitor, full curve, poor fit]",–
Cn1c(O)c(C=NCCCCCCCCCCC(=O)O)c(=O)n(C)c1=O,–,inactive: 4.01%
O=C(NC1CC1)[C@H]1CN2CCC1C[C@@H]2Cn1cc(CSc2ccccc2)nn1 (stereo partly drawn),"inconclusive: 126 µM [inhibitor, partial curve, poor fit]",–
CC1(C)CC(=O)C2=C(C1)NC(=O)C21C(C(=O)OC(C)(C)C)=C(N)Oc2ccc(Br)cc21 (stereo not drawn),"inconclusive: 50.1 µM [inhibitor, partial curve, poor fit]",–
C1CCN(C2CCCNC2)CC1 (stereo not drawn),–,inactive: 9.05%
Cn1nc(-c2ccc3ccccc3c2)cc1[C@H]1CN2CC[C@H]1C[C@@H]2CNC(=O)Nc1cccc(C#N)c1,"inconclusive: 35.5 µM [inhibitor, full curve, poor fit]",–
Cc1cccc(NC(=S)N2CC3CC(C2)c2cccc(=O)n2C3)c1C (stereo not drawn),"inconclusive: 141 µM [inhibitor, partial curve, poor fit]",–
CC1OC(OC2C=C3CCC4C(CCC5(C)C(c6ccc(=O)oc6)CCC45O)C3(C)CC2)C(O)C(OC2OC(CO)C(O)C(O)C2O)C1O (stereo not drawn),–,inactive: 0.671%
O=C1NC(=O)N(CCC2=CCCCC2)C(=O)/C1=C/c1ccc(O)cc1,"inconclusive: 44.7 µM [inhibitor, partial curve]",–
COC(=O)[C@@]1(Sc2ccc(C)cc2)CC(=O)N(P(=O)(OC)OC)[C@@H]1c1ccccc1,"inconclusive: 17.8 µM [inhibitor, partial curve, poor fit]",–
C=CCN1C(=O)NC(=O)/C(=C/c2ccoc2)C1=O,"inconclusive: 50.1 µM [inhibitor, partial curve]",–
O=[N+]([O-])c1ccc2nc(N3CCNCC3)ccc2c1,–,inactive: 0.334%
Cc1cc(OCC(=O)N2CCN(CC(=O)N3CCOCC3)CC2)c(C(C)C)cc1Cl,–,inactive: 181%
N[C@@]1(C(=O)O)CC[C@H](C(=O)O)C1,"inconclusive: 251 nM [inhibitor, full curve, poor fit] and inconclusive: 1.12 µM [inhibitor, full curve, poor fit]",–
CCOC(=O)C(O)(c1ccc(NC(=S)NC(=O)c2ccc(Cl)cc2Cl)cc1)C(F)(F)F (stereo not drawn),"inconclusive: 35.5 µM [inhibitor, partial curve, poor fit]",–
COc1ccc(CN2C(=O)NC(=O)/C(=C\c3cccc(OC)c3OC)C2=O)cc1,"inconclusive: 50.1 µM [inhibitor, partial curve, poor fit]",–
N#CC(C#N)=Cc1ccc(N2CCCC2)cc1,"inconclusive: 44.7 µM [inhibitor, partial curve]",–
CN(CC1CCCCC1)C1CCc2ccccc2C1 (stereo not drawn),–,inactive: 5.28% [at 176 µM]
C[C@H]1C[C@H](C)C(=O)[C@@H]([C@H](O)CC2CC(=O)NC(=O)C2)C1,–,inactive: 228%
OCC1CN(c2ccncn2)CC12CCNCC2 (stereo not drawn),–,inactive: -14.8%

# A second format for two compounds above.
SMILES | Potency | activity change, negative = inhibition
N[C@@]1(C(=O)O)CC[C@H](C(=O)O)C1 | inconclusive: 251 nM [inhibitor, full curve, poor fit] and inconclusive: 1.12 µM [inhibitor, full curve, poor fit] | –
CCOC(=O)C(O)(c1ccc(NC(=S)NC(=O)c2ccc(Cl)cc2Cl)cc1)C(F)(F)F (stereo not drawn) | inconclusive: 35.5 µM [inhibitor, partial curve, poor fit] | –

# (further entries)

SMILES,Potency,"activity change, negative = inhibition"
COCc1ccc(CN2CCCC(C(=O)c3sccc3C)C2)o1 (stereo not drawn),"inconclusive: 112 µM [inhibitor, partial curve, poor fit]",–
Oc1c(Br)cc(-c2ccccc2)cc1Br,"inconclusive: 70.8 µM [inhibitor, partial curve, poor fit]",–
COC(=O)C1=C(c2cc3ccccc3o2)C[C@@H]2CC[C@H]1N2C(=O)N1CCC(C)CC1,–,inactive: -4.48%
O=C(c1cc(Br)c[nH]1)C(Cl)(Cl)Cl,–,inactive: -19.2%
CN(C)C(=O)Oc1ccc2c(c1)O/C(=C\c1cccc([N+](=O)[O-])c1)C2=O,"inconclusive: 28.2 µM [inhibitor, single point]",–
Cc1cccc(CSc2nc3c(cc2C#N)CN(C)CC3)c1,–,inactive: -5.46%
CC(C)C(NC(=O)C(C(C)C)N(C)C)C(=O)N(C)C(C(=O)N1CCCC1C(=O)N1CCCC1C(=O)NCc1ccccc1)C(C)C (stereo not drawn) (ξNMe2Val-V[NMeV]PP-NHBn; configuration not given here),"inconclusive: 50.1 µM [inhibitor, partial curve, poor fit]",–
CCC(=Nc1cccc(C(F)(F)F)c1)c1c(O)n(C)c(=O)n(C)c1=O,"inconclusive: 35.5 µM [inhibitor, single point]",–
O=c1[nH]c2ccccc2n1C1CCN(C(c2ccnc3ccccc23)c2nnnn2-c2ccc3c(c2)OCCO3)CC1 (stereo not drawn),"inconclusive: 141 µM [inhibitor, single point]",–
CC=C(C)C(=O)O[C@H]1C(C)=C2[C@@H]3OC(=O)[C@@](C)(O)[C@@]3(O)[C@@H](OC(=O)CCC)C[C@](C)(OC(C)=O)[C@@H]2[C@@H]1OC(=O)CCCCCCC,"inconclusive: 24.3 µM [inhibitor, single point]",–
CC[n+]1c(SC)ccc2cc(OC)ccc21,"inconclusive: 4.47 µM [inhibitor, full curve, poor fit]",–
COC(=O)C1=Nc2ccccc2/C1=C\c1c(O)n(-c2ccc(OC)cc2)c(=O)[nH]c1=O,"inconclusive: 20 µM [inhibitor, partial curve, poor fit]",–
CC1=C(O)C(=O)C=C2C1=CC=C1C2(C)CCC2(C)C3CC(C)(C(=O)O)CCC3(C)CCC12C (stereo not drawn),active: 4.47 µM,–
Cc1nn(Cc2ccccc2)c(Cl)c1C(=O)OC(C)C(=O)Nc1ccc(F)cc1Cl (stereo not drawn),–,inactive: -6.9%
CCc1ccc(CNCCc2ccc(OC)cc2)cc1,active: 2.51 µM,–
C[C@]12CCC3[C@@H](CC[C@@H]4C[C@H](O)CC[C@]34C)[C@@H]1CCC2=O (stereo partly drawn),"inconclusive: 31.6 µM [inhibitor, partial curve, poor fit]",–
COc1ccc2c(C)c(C(=O)N3CCC(C#N)(c4ccccc4)CC3)oc2c1,"inconclusive: 8.91 µM [inhibitor, full curve, poor fit]",–
Cc1nc(-c2ccccc2Br)cc([C@H]2CN3CC[C@H]2C[C@@H]3CNS(=O)(=O)c2cccs2)n1,–,inactive: 18.8%
Cc1nc2ccc(Cl)cc2c(=O)n1-c1ccccc1Cl,–,inactive: 0%
Cc1ncc2c(n1)C[C@@H]1CC[C@H]2N1C(=O)Cc1ccccc1,–,inactive: 48.5%
C[C@]12CC[C@H]3[C@@H](CCC4=CC(=O)CC[C@@H]43)[C@@H]1CC[C@@H]2O,inactive,–

SMILES,Potency,"activity change, negative = inhibition"
COc1cccc(Nc2cc3c(cn2)CN(C)CCN3C)c1,–,inactive: 17.4% [at 176 µM]
CCOC(=O)c1c(C)n(Cc2ccccc2)c2ccc(OCC(O)CN3C(=O)CNC3=O)cc12 (stereo not drawn),–,inactive: 6.47% [at 57.4 µM]
CCC(CC)c1cc([C@H]2CN3CC[C@H]2C[C@@H]3CNC(=O)c2ccc(N(C)C)cc2)nc(-c2ccncc2)n1,"inconclusive: 56.2 µM [inhibitor, single point]",–
O=c1[nH]c(=O)n(Cc2ccco2)c(O)c1C=NCc1ccc2c(c1)OCO2,"inconclusive: 39.8 µM [inhibitor, partial curve, poor fit]",–
O=C(N/N=C/c1c(O)n(CCC2=CCCCC2)c(=O)[nH]c1=O)c1ccccc1,"inconclusive: 44.7 µM [inhibitor, partial curve, poor fit]",–
CCCCCCn1c(O)c(C=Nc2c(C)n(C)n(-c3ccccc3)c2=O)c(=O)[nH]c1=O,–,inactive: 400%
Cc1c(C(=O)c2ccc3ccccc3c2)c2cccc3c2n1[C@H](CN1CCOCC1)CO3,"inconclusive: 31.6 µM [inhibitor, partial curve, poor fit]",–
CN(C)c1ccc(C(=O)NC[C@H]2C[C@@H]3CCN2C[C@@H]3CN2CCCCC2)cc1,–,inactive: -14.8% [at 176 µM]
COc1ccc(-n2c(O)c(C=NCc3ccc4c(c3)OCO4)c(=O)[nH]c2=O)cc1,"inconclusive: 112 µM [inhibitor, partial curve, poor fit]",–
CC(=O)N1CCCSC1=Nc1ccccc1,–,inactive: 10.2%
O=C1NC(=O)C(=Cc2c(Cl)cccc2Cl)C(=O)N1,"inconclusive: 56.2 µM [inhibitor, partial curve, poor fit]",–
O=C1NC(c2cccnc2)Nc2sc3c(c21)CCCC3 (stereo not drawn),"inconclusive: 31.6 µM [inhibitor, partial curve, poor fit]",–
O=C1NC(=O)C(=Cc2ccco2)C(=O)N1,"inconclusive: 39.8 µM [inhibitor, partial curve]",–
c1ccc(C(OCCN2CCN(c3ncccn3)CC2)c2ccccc2)cc1,"inconclusive: 50.1 µM [inhibitor, partial curve, poor fit]",–
CN1CC2CN(C(=O)c3cccs3)CC(C1)O2,–,inactive: 39.8%
CN1CCOC[C@H]2CCNC[C@H]21,–,inactive: 59.3%
COc1ccc(-n2c(O)c(C(C)=Nc3ccc4c(c3)CCC4)c(=O)[nH]c2=O)cc1,"inconclusive: 4.47 µM [inhibitor, full curve, poor fit]",–
Cc1cc(O)c2c(c1)OC(C)(C)C1=C2CC(C)CC1 (stereo not drawn),"inconclusive: 44.7 µM [inhibitor, partial curve, poor fit]",–
N#Cc1ccc(NC(=O)CSc2ccc3c(c2)OCCCO3)cc1Cl,"inconclusive: 63.1 µM [inhibitor, partial curve, poor fit]",–
CC12CCC3c4ccc(OC(=O)N(CCCl)CCCl)cc4CCC3C1CCC2O (stereo not drawn),"inconclusive: 0.501 µM [inhibitor, full curve, poor fit]",–
CC[C@H]1OC(=O)C[C@@H](O)[C@H](C)[C@@H](O[C@@H]2O[C@H](C)[C@@H](O[C@H]3C[C@@](C)(O)[C@@H](O)[C@H](C)O3)[C@H](N(C)C)[C@H]2O)[C@@H](CC=O)C[C@@H](C)C(=O)/C=C/C(C)=C/[C@@H]1CO[C@@H]1O[C@H](C)[C@@H](O)[C@@H](OC)[C@H]1OC,–,inactive: 13.2%

# Whole records, looked up by structure. Values in the order: Potency	activity change, negative = inhibition
# CCC(CC)c1cc([C@H]2CN3CC[C@H]2C[C@@H]3CNC(=O)c2ccc(N(C)C)cc2)nc(-c2ccncc2)n1 reads inconclusive: 56.2 µM [inhibitor, single point]	–
# C=CCN1C(=O)NC(=O)/C(=C/c2ccoc2)C1=O reads inconclusive: 50.1 µM [inhibitor, partial curve]	–

# — PubChem BioAssay AID1671190 (National Center for Advancing Translational Sciences (NCATS), 2021)
